Results taken from article PMC7819943, “Rice protein-binding microarrays: a tool to detect cis-acting elements near promoter regions in rice”.
The list shows a part of the results.

Each sequence was assayed against T1, OsSMF1 (Oryza sativa, UniProt Q6ZLB0 1-436) (assay: protein-binding microarray (RPBM); PBS, 2% BSA, 51.3 ng/ul salmon testes DNA, 50 uM zinc acetate, 200 nM TF, 25 C, 1 h; high values mean tight binding). Details: protein: recombinant; tags: N-terminal polyhistidine and DsRed monomer fusion (pET32a); chain copies: 2; label: CyDye5-dUTP incorporated in the synthesized complementary strand; 3' TTTTT single-stranded linker to array surface; dsDNA, one strand shown.
T1 sequence: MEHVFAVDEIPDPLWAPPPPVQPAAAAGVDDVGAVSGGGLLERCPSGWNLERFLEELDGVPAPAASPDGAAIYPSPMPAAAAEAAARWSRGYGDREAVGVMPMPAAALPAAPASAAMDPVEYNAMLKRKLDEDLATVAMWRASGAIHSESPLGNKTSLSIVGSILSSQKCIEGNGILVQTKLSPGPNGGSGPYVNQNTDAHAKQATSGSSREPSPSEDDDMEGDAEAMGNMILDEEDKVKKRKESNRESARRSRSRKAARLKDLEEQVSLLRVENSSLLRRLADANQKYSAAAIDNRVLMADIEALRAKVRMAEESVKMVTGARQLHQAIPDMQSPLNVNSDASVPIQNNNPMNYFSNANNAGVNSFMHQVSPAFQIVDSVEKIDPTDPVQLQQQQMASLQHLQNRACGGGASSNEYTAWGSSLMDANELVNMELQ
Method in brief: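 The binding signal for each feature is its fluorescence intensity in arbitrary units. An Axon 4000B scanner was used to read a custom Agilent array that had been made double-stranded with Cy5-dUTP primer extension, blocked with 2% BSA, incubated at 25 °C for 1 h with 200 nM protein in PBS, 2% BSA, salmon testes DNA and 50 µM zinc acetate, and washed. The protein was an N-terminal polyhistidine–DsRed transcription factor fusion from E. coli BL21-CodonPlus, purified on Ni–NTA.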

Row | Sequence | binding signal
1 | CTCATCGTCCTCCACGTGTCCACCCATACACGTGTCGCCACGGAGTCACCTAGTGCAG | 29800 fluorescence intensity (a.u.)
2 | TTGTGTCGTTGACCTGCATGTTTTGAATCATGCTGGAAACCGGAGTCACCTAGTGCAG | 3700 fluorescence intensity (a.u.)
3 | AAAGAGCGGTGATGACGGTGTGTAGAGTGGCAGTTAGTTGCGGAGTCACCTAGTGCAG | 4150 fluorescence intensity (a.u.)
4 | TTACCTTCAATTTCTTCTGCCACACTCAAAGCATAAGCAACGGAGTCACCTAGTGCAG | 27200 fluorescence intensity (a.u.)
5 | CGCCCAACCGCCTCCCGCCACACACACACGACACAACCCGCGGAGTCACCTAGTGCAG | 3860 fluorescence intensity (a.u.)
6 | GTTTTGGTGGAGTGTTGCATCAGCTCGATGCTCTCGTTGCCGGAGTCACCTAGTGCAG | 3470 fluorescence intensity (a.u.)
7 | CTTGTTGGATCATTGCTGATTTCAGTATAATTCGTCAGCACGGAGTCACCTAGTGCAG | 5880 fluorescence intensity (a.u.)
8 | GACCCTCCAGCGCAGGTGCTTCTCGTCATCGCCTCCCGACCGGAGTCACCTAGTGCAG | 5190 fluorescence intensity (a.u.)
9 | AATTTTCTGCGGGGAAAGCGATAAGGCTCCCGCCGCACCGCGGAGTCACCTAGTGCAG | 14700 fluorescence intensity (a.u.)
10 | CGCGTAGCCATTCCCCGCCAGCTGGCAGAAGGCCAAGCAGCGGAGTCACCTAGTGCAG | 6360 fluorescence intensity (a.u.)
11 | ACGTTATCCATTGCAAAATCGTACACCGGAAATATTTCTTCGGAGTCACCTAGTGCAG | 23700 fluorescence intensity (a.u.)
12 | TCATCTCATATATGGTTTGACCGCGATGGTTTGTTTGCCACGGAGTCACCTAGTGCAG | 31900 fluorescence intensity (a.u.)
13 | TGGCATGAATTGTACTACTGACACTACTAGTGTACTATTACGGAGTCACCTAGTGCAG | 23800 fluorescence intensity (a.u.)
14 | AGTGATTGTGTTTAATCTTAATGACTCGCTCCCCTCACACCGGAGTCACCTAGTGCAG | 3270 fluorescence intensity (a.u.)
15 | GGGTTCAGTTGCCTCCCTGTCAGTCACTAGTGGAACACAGCGGAGTCACCTAGTGCAG | 3260 fluorescence intensity (a.u.)
16 | GTTCACTCCTACCCACGACACGCGTCGCGCCGTGTCATCTCGGAGTCACCTAGTGCAG | 9430 fluorescence intensity (a.u.)
17 | ATGGAAATGGCCACCATCATCACCAACTACTTTTATGGAACGGAGTCACCTAGTGCAG | 3320 fluorescence intensity (a.u.)
18 | CTACCTACCAATGGACCTACTCGTTAGGTACCGTAGCCGACGGAGTCACCTAGTGCAG | 3640 fluorescence intensity (a.u.)
19 | CTCACGCCACCGAGTCGCGCCGACGTCATCATTGTGCCGTCGGAGTCACCTAGTGCAG | 10300 fluorescence intensity (a.u.)
20 | AGGCGGAGGCGACGCCGCCGCGGACGACGTGGACGTCGACCGGAGTCACCTAGTGCAG | 6790 fluorescence intensity (a.u.)
21 | ACTTATGTTGGGTTTCATTTATTCTCGGTCGAATCATGCTCGGAGTCACCTAGTGCAG | 3360 fluorescence intensity (a.u.)

As entered above.
Under binding signal, GTTTTGGTGGAGTGTTGCATCAGCTCGATGCTCTCGTTGCCGGAGTCACCTAGTGCAG is entered as 3470 fluorescence intensity (a.u.)
Under binding signal, TTACCTTCAATTTCTTCTGCCACACTCAAAGCATAAGCAACGGAGTCACCTAGTGCAG is entered as 27200 fluorescence intensity (a.u.)

The listing continues:

Row | Sequence | binding signal
22 | GATTCTACCGAGAGCGAGCTGTAATAATAACTTCTACCCGCGGAGTCACCTAGTGCAG | 30200 fluorescence intensity (a.u.)
23 | AGGCATGCGTGCGATGTACCGAAATGTGTCGCCACTGCTGCGGAGTCACCTAGTGCAG | 30400 fluorescence intensity (a.u.)
24 | GATTAACATGTTAAATGTATATGAGACTGTTTAGTAGAATCGGAGTCACCTAGTGCAG | 4220 fluorescence intensity (a.u.)
25 | GAATGCATGTCCCAGTCATACTAATCGACTCACTTTCACACGGAGTCACCTAGTGCAG | 6240 fluorescence intensity (a.u.)
26 | TGGATTTTGCACCGATCGCACCACGTCTCCGTCTGTTTGCCGGAGTCACCTAGTGCAG | 4240 fluorescence intensity (a.u.)
27 | CCACTCGTCGCCCTCGGCCATGACGCGGCCTCTCCCGAACCGGAGTCACCTAGTGCAG | 4540 fluorescence intensity (a.u.)
28 | ATTTCGGGACGGAGGGTGTACCATCTAAATGAGCTGGCAACGGAGTCACCTAGTGCAG | 4870 fluorescence intensity (a.u.)
29 | GTAGCGATGCTTCGCGTGGTGCTGACGTCATCGGATCCGACGGAGTCACCTAGTGCAG | 32500 fluorescence intensity (a.u.)
30 | TGGCCAGCTTCACCGCGAAGCGCCACGTGTCTTCCACTCACGGAGTCACCTAGTGCAG | 21900 fluorescence intensity (a.u.)
31 | TAGATCAATATCCTCACTTGAGAAACTTGAGGAGTTGGCACGGAGTCACCTAGTGCAG | 4030 fluorescence intensity (a.u.)
32 | AGCTAAGACATCGATCGAGGACGCATCACGCATCCATTCCCGGAGTCACCTAGTGCAG | 3460 fluorescence intensity (a.u.)
33 | ACTTCCCCGGGTGTACGTCGCTCGGGAACACGCTTGGCCGCGGAGTCACCTAGTGCAG | 3420 fluorescence intensity (a.u.)
34 | CGATGAACTCTTGGCGTTTTCTCATGGCATGACGCCACAGCGGAGTCACCTAGTGCAG | 3320 fluorescence intensity (a.u.)
35 | AGCCAAGCCCCTCCGCGGCGCGCGCGTTATCCATCTCCCCCGGAGTCACCTAGTGCAG | 8510 fluorescence intensity (a.u.)
36 | GGTCACCTCATGCTCGCTCCGTTCACTTCGCTGACAGGTGCGGAGTCACCTAGTGCAG | 3790 fluorescence intensity (a.u.)
37 | GCTATCGCCGGTTTCGTCATCAATAATCTTCTCTGCCTCTCGGAGTCACCTAGTGCAG | 6100 fluorescence intensity (a.u.)
38 | TATACAATCGTGTGTTTCTGTGTCGTCATCTGACGTAGTCCGGAGTCACCTAGTGCAG | 7450 fluorescence intensity (a.u.)
39 | TTTGCCATATACATTGGTGATGCCCTTAGGTTCAAAAGATCGGAGTCACCTAGTGCAG | 5390 fluorescence intensity (a.u.)
40 | TTTTGTTTGTTTTGATGTCGTGTCATGTAGATACTCGTACCGGAGTCACCTAGTGCAG | 8270 fluorescence intensity (a.u.)
41 | ACCTGCCACATTTACCAGTCACCACGACGGCAGCATTTCCCGGAGTCACCTAGTGCAG | 3960 fluorescence intensity (a.u.)
42 | CATTCATACAATTAGTTTTATTATTAGTCTATGTTTAATACGGAGTCACCTAGTGCAG | 15300 fluorescence intensity (a.u.)
